Assay results published in the supplement of paper PMC4604168 (melanoma cell lines).
The other results are listed elsewhere or left out. Many values rest on one well or one pass, so single values are uncertain.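 Imaging used 1,536-well plates; nuclei positive for cleaved PARP by antibody were divided by total DNA-stained nuclei to yield the apoptosis fraction. Doses for screening kept most cells viable, and cell lines differ markedly in resting and induced cleaved-PARP levels.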

test system: CBRC034 (line from a melanoma biopsy); experiment: cleaved PARP positive nuclei fraction relative to DMSO control; melanoma cells; higher = more apoptosis; conditions: library dose: low library concentration; 72 h

Structure (SMILES)	cleaved PARP positive nuclei fraction [%]
O=C(Nc1ccccc1)c1cc([N+](=O)[O-])ccc1Cl + O=S(=O)(c1ccccc1)N(CC(F)(F)F)c1ccc(C(O)(C(F)(F)F)C(F)(F)F)cc1 [T0901317] (first compound 2 µM, partner dose 1.4 µM)	86
N#Cc1c(O)c2c(-c3ccc(-c4ccccc4O)cc3)csc2[nH]c1=O + O=S(=O)(c1ccccc1)N(CC(F)(F)F)c1ccc(C(O)(C(F)(F)F)C(F)(F)F)cc1 [T0901317] (first compound 2 µM, partner dose 1.4 µM)	461
CN(NC(=O)CC(=O)NN(C)C(=S)c1ccccc1)C(=S)c1ccccc1 + c1cc(-c2cnn3cc(-c4ccc(OCCN5CCCCC5)cc4)cnc23)ccn1 [Dorsomorphin] (first compound 0.006 µM, partner dose 0.4 µM)	224
COc1cc2c(Oc3ccc4[nH]c(C)cc4c3F)ncnc2cc1OCCCN1CCCC1 [cediranib] + c1cc(-c2cnn3cc(-c4ccc(OCCN5CCCCC5)cc4)cnc23)ccn1 [Dorsomorphin] (first compound 0.4 µM, partner dose 0.4 µM)	164
CN(NC(=O)CC(=O)NN(C)C(=S)c1ccccc1)C(=S)c1ccccc1 + N#Cc1c(O)c2c(-c3ccc(-c4ccccc4O)cc3)csc2[nH]c1=O [A769662] (first compound 0.006 µM, partner dose 2 µM)	242
CN(C)S(=O)(=O)c1ccc2c(c1)/C(=C/c1cc3c([nH]1)CCCC3)C(=O)N2 + CC(C)CCN1c2nc(Nc3cc(F)c(O)c(F)c3)ncc2N(C)C(=O)C1C [BID1870] (first compound 0.4 µM, partner dose 0.2 µM)	103
